Laboratory results reported in the supplement of paper PMC7125110.
± gives the standard error. Many of these values have a large error.

B1: glmS ribozyme (parent)
chain: AUAAAAGCGCCAGAACUACAGAAAUGUAGUUGACGAGGAGGAGGUUUAUCGAAUUUUCGGCGGAUGCCUCCAAA

Variants of: B1
Assay: self-cleavage kobs at 40 uM GlcN6P; higher = faster cleavage; RNA array
Details: with glucosamine-6-phosphate
Procedure, shortened: (§1)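 Tiles of sequenced MiSeq chips were imaged over ~14 h at 37 °C. On them, barcoded ribozyme variants had been transcribed in situ by E. coli RNA polymerase and were tracked via a hybridised Cy3 probe while glucosamine-6-phosphate (40 μM to 10 mM) in HEPES/KCl/Mg(OAc)2 buffer flowed in. Per-tile medians, normalised to baseline and to non-cleaving reference variants, were fit to one- or two-exponential decays for kobs, and weighted Michaelis–Menten fits gave kcat and KM.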

Q: For A53G C58A, which “self-cleavage kobs at 40 uM GlcN6P” value is on record?
A: 1.11e-05 ± 1.1e-05 s⁻¹

Q: How did the “self-cleavage kobs at 40 uM GlcN6P” value turn out when G40C U46C was run?
A: 4.12e-05 ± 2.4e-05 s⁻¹

Q: U49G U54A was tested. Which “self-cleavage kobs at 40 uM GlcN6P” value did it give?
A: 1.32e-05 ± 1e-05 s⁻¹

Q: With U54A U69G as the variant, how does the “self-cleavage kobs at 40 uM GlcN6P” value read?
A: 2.49e-05 ± 1.6e-05 s⁻¹

Q: With U31C C71G as the variant, how does the “self-cleavage kobs at 40 uM GlcN6P” value read?
A: 2.97e-05 ± 1.5e-05 s⁻¹

Q: Which “self-cleavage kobs at 40 uM GlcN6P” value does the source give for G29A U45G here?
A: 2.63e-05 ± 2.6e-05 s⁻¹

Q: Which “self-cleavage kobs at 40 uM GlcN6P” value does the source give for G13U U31C here?
A: 1.89e-05 ± 1.6e-05 s⁻¹

Q: For C58G C61G, which “self-cleavage kobs at 40 uM GlcN6P” value is on record?
A: 2.25e-05 ± 2.1e-05 s⁻¹

Q: How did the “self-cleavage kobs at 40 uM GlcN6P” value turn out when C16G C34U A42U C50G was run?
A: 3.06e-05 ± 2.3e-05 s⁻¹

Q: With C16U C58U C68G as the variant, how does the “self-cleavage kobs at 40 uM GlcN6P” value read?
A: 3.15e-05 ± 1.7e-05 s⁻¹

Q: How did the “self-cleavage kobs at 40 uM GlcN6P” value turn out when G41A C70A was run?
A: 2e-05 ± 1e-05 s⁻¹

Q: U31G U69G was tested. Which “self-cleavage kobs at 40 uM GlcN6P” value did it give?
A: 3.21e-05 ± 1.8e-05 s⁻¹

Q: For U54G G60C U69A, which “self-cleavage kobs at 40 uM GlcN6P” value is on record?
A: 4.4e-05 ± 2.3e-05 s⁻¹

Q: For U31C G51C U69G, which “self-cleavage kobs at 40 uM GlcN6P” value is on record?
A: 3.81e-05 ± 2.5e-05 s⁻¹

Q: Which “self-cleavage kobs at 40 uM GlcN6P” value does the source give for C11U C68U here?
A: 1.86e-05 ± 1.5e-05 s⁻¹

Q: With U47A C67G as the variant, how does the “self-cleavage kobs at 40 uM GlcN6P” value read?
A: 2.36e-05 ± 1.9e-05 s⁻¹

Q: How did the “self-cleavage kobs at 40 uM GlcN6P” value turn out when G7A A53U C68G was run?
A: 3.84e-05 ± 2.3e-05 s⁻¹

Q: Which “self-cleavage kobs at 40 uM GlcN6P” value does the source give for G32U C67A here?
A: 1.55e-05 ± 1.4e-05 s⁻¹

Q: For C8U C16G C34G C67G, which “self-cleavage kobs at 40 uM GlcN6P” value is on record?
A: 3.44e-05 ± 1.8e-05 s⁻¹

Q: C11G C50U C61U C70G was tested. Which “self-cleavage kobs at 40 uM GlcN6P” value did it give?
A: 2.97e-05 ± 2.4e-05 s⁻¹

Q: How did the “self-cleavage kobs at 40 uM GlcN6P” value turn out when U31G U45C was run?
A: 4.35e-05 ± 2.4e-05 s⁻¹

Q: For U31A A36U U47G C70G, which “self-cleavage kobs at 40 uM GlcN6P” value is on record?
A: 3.13e-05 ± 2.2e-05 s⁻¹

Q: C11U A15U was tested. Which “self-cleavage kobs at 40 uM GlcN6P” value did it give?
A: 2.65e-05 ± 1.4e-05 s⁻¹

Q: G40U G66C was tested. Which “self-cleavage kobs at 40 uM GlcN6P” value did it give?
A: 2.08e-05 ± 1.8e-05 s⁻¹

Q: G35A G38A C71G was tested. Which “self-cleavage kobs at 40 uM GlcN6P” value did it give?
A: 2.98e-05 ± 2.6e-05 s⁻¹

Q: Which “self-cleavage kobs at 40 uM GlcN6P” value does the source give for A6G C50G C68G here?
A: 2.19e-05 ± 1.6e-05 s⁻¹

Q: With A14U U69A as the variant, how does the “self-cleavage kobs at 40 uM GlcN6P” value read?
A: 1.55e-05 ± 1.3e-05 s⁻¹

Q: With G13A U31C as the variant, how does the “self-cleavage kobs at 40 uM GlcN6P” value read?
A: 1.08e-05 ± 1e-05 s⁻¹

Q: With C11U C71G as the variant, how does the “self-cleavage kobs at 40 uM GlcN6P” value read?
A: 2.42e-05 ± 1.8e-05 s⁻¹

Q: With A14C U45C A64G G66A as the variant, how does the “self-cleavage kobs at 40 uM GlcN6P” value read?
A: 2.42e-05 ± 2.3e-05 s⁻¹

Q: With A15G A53U U69G as the variant, how does the “self-cleavage kobs at 40 uM GlcN6P” value read?
A: 2.9e-05 ± 2.8e-05 s⁻¹

Q: How did the “self-cleavage kobs at 40 uM GlcN6P” value turn out when A12C U55A U69C was run?
A: 1.61e-05 ± 1.5e-05 s⁻¹

Variants of: B1
Assay: self-cleavage kobs at 640 uM GlcN6P; higher = faster cleavage; RNA array
Details: with glucosamine-6-phosphate
Procedure, shortened: as §1

Q: With C10G A53G U56A C68A as the variant, how does the “self-cleavage kobs at 640 uM GlcN6P” value read?
A: 2.23e-05 ± 2.1e-05 s⁻¹

Q: Which “self-cleavage kobs at 640 uM GlcN6P” value does the source give for A6G A12U C16U here?
A: 3.91e-05 ± 2.6e-05 s⁻¹

Q: A6U C50A U57G C67U was tested. Which “self-cleavage kobs at 640 uM GlcN6P” value did it give?
A: 4.55e-05 ± 3.4e-05 s⁻¹

Q: Which “self-cleavage kobs at 640 uM GlcN6P” value does the source give for G9A C34G here?
A: 0.000997 ± 0.00096 s⁻¹

Q: C10G A14U G29C U31G C71A was tested. Which “self-cleavage kobs at 640 uM GlcN6P” value did it give?
A: 0.000281 ± 0.00019 s⁻¹

Q: G7A C34U C70G was tested. Which “self-cleavage kobs at 640 uM GlcN6P” value did it give?
A: 3.23e-05 ± 3.1e-05 s⁻¹

Variants of: B1
Assay: self-cleavage kobs at 160 uM GlcN6P; higher = faster cleavage; RNA array
Details: with glucosamine-6-phosphate
Procedure, shortened: as §1

Q: For U31C C71G, which “self-cleavage kobs at 160 uM GlcN6P” value is on record?
A: 0.00279 ± 0.0018 s⁻¹

Q: G32U C67A was tested. Which “self-cleavage kobs at 160 uM GlcN6P” value did it give?
A: 1.75e-05 ± 1.4e-05 s⁻¹

Q: How did the “self-cleavage kobs at 160 uM GlcN6P” value turn out when G40U G66C was run?
A: 4.27e-05 ± 2.2e-05 s⁻¹

Q: How did the “self-cleavage kobs at 160 uM GlcN6P” value turn out when C11U C71G was run?
A: 2.64e-05 ± 1.5e-05 s⁻¹

Variants of: B1
Assay: self-cleavage kobs at 2500 uM GlcN6P; higher = faster cleavage; RNA array
Details: with glucosamine-6-phosphate
Procedure, shortened: as §1

Q: How did the “self-cleavage kobs at 2500 uM GlcN6P” value turn out when C58G C61G was run?
A: 4.06e-05 ± 2.2e-05 s⁻¹

Q: How did the “self-cleavage kobs at 2500 uM GlcN6P” value turn out when A6U C50A U57G C67U was run?
A: 3.55e-05 ± 2.1e-05 s⁻¹

Q: With G40U G66C as the variant, how does the “self-cleavage kobs at 2500 uM GlcN6P” value read?
A: 0.000224 ± 0.00011 s⁻¹

Variants of: B1
Assay: self-cleavage kobs at 10000 uM GlcN6P; higher = faster cleavage; RNA array
Details: with glucosamine-6-phosphate
Procedure, shortened: as §1

Q: Which “self-cleavage kobs at 10000 uM GlcN6P” value does the source give for U54G G60C U69A here?
A: 2.85e-05 ± 1.6e-05 s⁻¹

Q: G7A A53U C68G was tested. Which “self-cleavage kobs at 10000 uM GlcN6P” value did it give?
A: 3.37e-05 ± 2.3e-05 s⁻¹

Q: With C8U C16G C34G C67G as the variant, how does the “self-cleavage kobs at 10000 uM GlcN6P” value read?
A: 2.65e-05 ± 1.9e-05 s⁻¹
